Measured values as given in patent publication US8178540B2 (priority 2006, dated 2012).
Some of these results come from one statement about several compounds together.

Experiments:
Phakospora pachyrhizi = test: Use Example 7: soyabean rust, greenhouse, curative spray; type: in vivo; conditions: 250 ppm; soyabean cultivar Oxford, sprayed 1 day after inoculation; 14 days; untreated plants 90% infected
Phytophthora infestans [1] = type: cell-based; conditions: 125 ppm; absorption 405 nm, day 7; compound-free control = 100%
Pyricularia oryzae = type: cell-based; conditions: 125 ppm; absorption 405 nm, day 7; compound-free control = 100%
Phytophthora infestans [2] = type: in vivo; conditions: 250 ppm; tomato plants, sprayed 1 day before inoculation; after six days; untreated plants 90% infected
Puccinia recondita = test: Use Example 5: curative activity against brown rust of wheat; type: in vivo; conditions: 250 ppm; wheat cultivar Kanzler, curative spray 1 day after inoculation; 7 days; untreated plants 90% infected

O=S(=O)(NCc1ccncn1)c1ccc(-c2ccc(Cl)cc2)cc1 [Example 1, 4′-Chlorobiphenyl-4-sulfonic acid (pyrimidin-4-ylmethyl)-amide]
infection (rust fungus development on the leaves) (Phakospora pachyrhizi): less than or equal to 20%

O=S(=O)(NCc1ccncn1)c1ccc(-c2ccc(F)cc2)cc1 [Example 3, 4′-Fluorobiphenyl-4-sulfonic acid (pyrimidin-4-ylmethyl) amide]
growth of the pathogen (relative growth in %) (Phytophthora infestans [1]): at most 25%
relative growth of the pathogen (Pyricularia oryzae): at most 25%

COc1nccc(CNS(=O)(=O)c2ccc(-c3ccc(Cl)cc3)cc2)n1 [Example 88]
infection (% diseased leaf area) (Phytophthora infestans [2]): less than or equal to 20%
infection (rust fungus development on the leaves) (Puccinia recondita): less than or equal to 15%
